Measured values from the supplement of paper PMC5949888.
Most values lie at the floor of the assay. Slopes are relative: functional sequences can read slightly below zero.

Test system: Saccharomyces cerevisiae PS128 hsf1 delta, HSF1(1-493) fusion
Assay: growth estimate (transactivation domain function in HSF1 fusion, heat-shock survival) (a.u. (slope of normalised read count over time)); higher = stronger growth at 37°C, i.e. more transactivation activity
Settings: library: random library
Method: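 Random 60-nt DNA library encoding peptides of up to 20 aa, fused to the C-terminus of yeast HSF1 residues 1-493 (C-terminal TAD deleted) and expressed from the native HSF1 promoter on a CEN plasmid in hsf1-deleted S. cerevisiae PS128. Cells were selected at 37°C on -trp 5-FOA plates for 0, 2, 4, 6 and 8 days and amplicons were sequenced. Growth estimate is the slope of a robust linear fit of total-sum-normalised read counts (normalised to the first time point) over time, using at least 2 replicates. Sequences are classed functional (TAD activity) above a threshold of -0.13, set from stop-codon control sequences.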

Substance | growth estimate
KNSASNVQGSDQSVGFTSLT | < -0.25
LLETARTKLGCSMLDRKSHP | < -0.25
PDRSRIFWEDPFSVIPAGYY | -0.217
RNLR | < -0.25
LRSPGATGIMG | -0.243
LAGSSRRQT | < -0.25
SNYVLRLVRGPCRNVPMTVP | < -0.25
RKEGHDQDCVMTLSNVAE | < -0.25
VFYLSVPCIHSRLSGSCDRV | < -0.25
TRG | < -0.25
RTKA | -0.241
DKTRAARIQGS | < -0.25
YETPPRETDCMLVNLSVLFV | < -0.25
LKVGRGTRLRLGEVPLVLNG | < -0.25
FMCLESVLAKPKSVSPPPDH | -0.107
SVPVAWVRSRMRLKGGPDLG | < -0.25
SAEYMLIGACSEFAKSGHVS | < -0.25
HRT | < -0.25
PGVVQGGCISYGMRS | < -0.25
TMRDI | < -0.25
YRHKHFKRQNVNVYQCVNPT | < -0.25
ELRRTACTNGDLT | < -0.25
CRAEGY | < -0.25
GGPSIYSWLRAYDAFWRSNP | < -0.25

Substance | growth estimate
LSCYLWIVRSSALRFLHNLV | < -0.25
AQATWVPLTVSVQVGGSVLA | < -0.25
IILPVLMFYSSFVMNVRGQR | -0.248
ARRVQTTSAPDCSITLRPNG | < -0.25
VQSVVYRATQETNPG | < -0.25
VMPELYGDLAGEPG | < -0.25
DTGNTDIARRGNRFQAGTLY | < -0.25
SAGYQ | < -0.25
HRRKSQYELVVHLFTVTFVQ | < -0.25
GGIWSILRTTQLLGDARTQS | < -0.25
RRTVTVGQLVSVDSAILSCL | < -0.25
QPTTCQKRS | < -0.25
LFFVKFSKTAVLGQPCTIVR | < -0.25
VVLIGRPLSCGRLSPMSSKP | < -0.25
LVHLAGVVYTGGAGGRIQVG | < -0.25
DVYCTLRADHP | < -0.25
LTKQ | < -0.25
QVRLAVTKSACVSLMIAVLS | < -0.25
VYNTLGAN | < -0.25
FSGSLNSGSQGPRDMHECQL | < -0.25
FSESSQLQLQSCAVKTRLPC | < -0.25
LALGVCRVRLEANSVLQP | < -0.25
VRRAYEGSTDLHRGKVLWGT | < -0.25
IRI | < -0.25

Quoted from the listing for reference:
Substance | growth estimate
SAGYQ | < -0.25
HRRKSQYELVVHLFTVTFVQ | < -0.25
GGIWSILRTTQLLGDARTQS | < -0.25
RRTVTVGQLVSVDSAILSCL | < -0.25

(further entries)

Substance | growth estimate
ECPAGSIGLQTMCVDFRFI | < -0.25
FSAQWPVFVTSGAILIAVRV | < -0.25
RDKSAHPDSGDVLFLTLLSD | 0.0903
SFWQHGA | < -0.25
SGVGERRYKRSLRLVAELMI | < -0.25
VQC | < -0.25
AEPPALGSHLAKEYVAVGSP | < -0.25
HRTDLKGCEF | < -0.25
KTRANHLM | < -0.25
AKQTIIRQGGPK | < -0.25
CITSGECSIRDVSQWETLEL | < -0.25
PRSIFVIH | < -0.25
GPLHFYTEERR | < -0.25
APYGSAYKTNYWTRGCKGYR | < -0.25
SKSPCIFNADRQNPFPPRGT | < -0.25
DCGRRKRKLECAGPSELRSY | < -0.25
ASKTAIPQGVCTFGWVSGVS | < -0.25
GLLHAKRLTLRHAGILIGAS | < -0.25
SGYKAH | < -0.25
GSFGPNCHM | < -0.25
FGGRPGEWDPRHPGVSESPG | < -0.25
DRNGRHRWDVIQYTT | < -0.25
PDS | < -0.25
PDDWHAWPARKIGLKWGRLK | -0.208

6 entries drawn at random from those above, as already listed:
Substance | growth estimate
AEPPALGSHLAKEYVAVGSP | < -0.25
SFWQHGA | < -0.25
FSAQWPVFVTSGAILIAVRV | < -0.25
AKQTIIRQGGPK | < -0.25
ECPAGSIGLQTMCVDFRFI | < -0.25
SKSPCIFNADRQNPFPPRGT | < -0.25

Additional records

Substance | growth estimate
HCGEIRSSDYGASDRKVDPL | < -0.25
SGASEFR | < -0.25
RIFWQHQSRSS | < -0.25
PTVNHIVDGHRVIA | -0.233
RDRHGY | < -0.25
WGVQCPGTGGGSWHFQMRQT | < -0.25
RGRIMCLENSKGKSQIQFTP | < -0.25
RGIRLVACQHSSNATLSCGH | < -0.25
FYKVAQANRGDRKEGAIMHS | < -0.25
HRQKSRAVERIKMPSRTRGR | < -0.25
NRPRRVLNRSRMGVTRGTTS | < -0.25
LEYSFS | < -0.25
FTYTLVLLCST | < -0.25
ALRTIPIVQSKLPLSKGATS | < -0.25
FRGWPREK | < -0.25
SSTPGRLTQVLARSSRVQHK | < -0.25
PSWMPEYPRTLVVAR | 0.0226
RVVEGRSRSHLSLPTFSYHP | < -0.25
QGGDGRFKFIFSGLLKVVVE | < -0.25
SLIT | < -0.25
RDAFAKHRC | -0.243
APSLTLGGLTGTGFPIGLPG | < -0.25
FTPVSEGKRRATGNLYQFAG | < -0.25
RVRVANRGSCVYYNCIHQDT | < -0.25

Substance | growth estimate
LVSQTGIPQAVRTRRRVWVP | < -0.25
RTVHG | < -0.25
MKGGC | < -0.25
WEP | < -0.25
SMGMIGFDHTPRQY | < -0.25
QRDITTSRGPTNSSRKMRAS | < -0.25
SVQT | < -0.25
FLTPRHGTLAYGVTLGG | < -0.25
SVSQPHEVLSWYPRGFRTVL | < -0.25
YEEEYYLLLSQRLASYRKPD | < -0.25
SSALVWGSIYDVGLSRTTRE | < -0.25
YFRFGGRNPCGIHSCSRNRS | < -0.25
RTVMEGASNSYV | < -0.25
AGMKKE | < -0.25
GNIHKVLGV | < -0.25
GTSFQDFTSRVHVVCVGRCG | < -0.25
PCSSNGGQFCTTASVLLRLH | < -0.25
TDAMAILFVT | < -0.25
GRPVLTINVVPCDRGITRPQ | < -0.25
GLTKRCGRRADDGFEGMINR | < -0.25
RHLVIGNVAKPLRSRGNCDP | < -0.25
IQGAQCLSAWRQNAAALPLR | < -0.25
SMLDVGRPRAKR | < -0.25
VPQTWRGPTVFML | < -0.25

Substance | growth estimate
FICLS | < -0.25
VSSRGIFQTYQAADSQTVSR | < -0.25
YIFGRVK | < -0.25
KVGMISVLRR | < -0.25
GALE | < -0.25
PTVYGRPKGYALHKCNKLLS | < -0.25
YVALVARTSCSDRSTNPSEL | < -0.25
YWSL | < -0.253
EIVLKLT | < -0.25
YKDRRSPGYALVV | < -0.25
PGRDCFAEDT | < -0.25
TSSEVLSSPFYRRGSSPAGR | < -0.25
KGS | < -0.25
SSMLPGGGAKTHVLLPQTC | < -0.25
THHHVR | < -0.25
GEGRLAEFFYALDTHLRVTC | < -0.25
LQLK | < -0.25
RPLTESRE | < -0.25
LAD | < -0.25
GAHQLAGPVRLKDTGPHDSY | < -0.25
VLSALAK | < -0.25
ILER | < -0.25
MITTA | < -0.25
LLGRPKDSPGRFWTRLSELG | < -0.25

Substance | growth estimate
GASLFEVRAHLRSRR | < -0.25
RVEGIVERSL | < -0.25
RLRNQRDSYHFIGIAWFRPQ | < -0.25
LTIRHLTQIELLPG | < -0.25
CHVSLGRGWDPT | < -0.25
IMG | < -0.25
TQVLLTGWSGPARFGNRYLQ | < -0.25
RWSLRMGVCSATDVE | < -0.25
LKGQ | < -0.25
GVWGRI | < -0.25
SGRAKQECRNRSCHHFA | -0.25
RNVRRQRRNVAPGFVR | < -0.25
GTTSKPHTRAMRHSLGSL | < -0.25
EGMFSGP | < -0.25
YAWAW | < -0.25
RLKNWIYPNLH | < -0.25
PRW | < -0.25
GEGSFNSAVDHDVPVRLYLF | < -0.253
SHPQSRVK | < -0.25
SGLGAEE | < -0.25
PRVKSGLWEPSISCVCIGGV | < -0.25
KCWFLELALIPAGYSLGCAD | < -0.25
RTIKPKVVNQCWRLSTYVMG | < -0.25
LDPESWYGAAKDHVNRIL | < -0.25

Substance | growth estimate
AGTRFACGDGLSDGRPLTGC | < -0.25
VRLATWGHALKKVRTIGHMA | < -0.25
RCQLVYVAFGVILLSNVTLH | < -0.25
IMGFCVLDVSTDVVLDLHR | < -0.25
FEPLGYYKALIERVN | < -0.25
IARYLRLEEYISGTPPTMWT | < -0.25
TCALYTPGSNQVWTGGHILS | < -0.25
KEWCTIIGLSIRQGRLV | < -0.25
RWKNDTVLDCYSDALAARGP | < -0.25
DGAQPIPTGSWGCTIVPAQL | -0.235
STLPPGGILI | < -0.25
TYWANQQSKEGRDG | < -0.25
SLLGVLSMYHRRRSRHIEAR | < -0.25
AWSIAKLVPRGEALNAE | < -0.25
VTTRKAVRG | < -0.25
WTSGCI | < -0.25
TVFIGVGDSIGGSMKRWELC | < -0.25
PWT | < -0.25
AEG | < -0.25
ACPRPAEELSCVLKGTYRQ | < -0.25
GYGRPDWPGVASWIPFAFRP | < -0.25
KVLFPTT | < -0.25
RWEAPSGPISDIMPGRQACS | < -0.25
WSRGSGPAAIVLHGLERSHL | < -0.25
